Numbering of substitutions follows the chain as printed. These are yes or no findings as the source states them, for the method shown. Some entries that bind do so weakly or less than the wild type.
B1: 1-2A (designed binder)
chain: GSHMVSGKIVVIGSSTGGPRSLDMIIPNLPKNFPAPIVVVQHGAGWWGGGARGTKSLAQRLDSTSELTVKEAEDGEEVKPGFVYIAPGDFHLGLKAQNGKVFFFLDKSGRVWAGAEAWGVRPAVDFTLDKAAEIYKEKTIAVILTGGSETGSWGGGDGTKGAFKVKFYGGTVIAEDKETSVVFGMPKSVIEEGYADYVLPAYKIPEKLIELV
B2: 1-3E (designed binder)
chain: GSHMVSGKIVVIGSSTGGPRSLDMIIPNLPKNFPAPIVVVQHGDAWWGGGWRGTKSLAQRLDSTSELTVKEAEDGEEVKPGFVYIAPGDFHLGLKAQNGKVFFFLDKSGDSYTGNWAWGVRPAVDFTLDKAAEIYKEKTIAVILTGGASTGYNGGGDGTKGAFKVKFYGGTVIAEDKETSVVFGMPKSVIEEGYADYVLPAYKIPEKLIELV
B3: 1-12C (designed binder)
chain: GSHMVSGKIVVIGSSTGGPRSLDMIIPNLPKNFPAPIVVVQHGWALNGRYTLGTKSLAQRLDSTSELTVKEAEDGEEVKPGFVYIAPGDFHLGLKAQNGKVFFFLDKSGARDRGREWYGVRPAVDFTLDKAAEIYKEKTIAVILTGGYWEGDYAGGDGTKGAFKVKFYGGTVIAEDKETSVVFGMPKSVIEEGYADYVLPAYKIPEKLIELV
notes: CheBc scaffold clone from modified pQE-80L in E. coli, purified on cobalt resin, detected with anti-FLAG
B4: 1-10B (designed binder)
chain: GSHMVSGKIVVIGSSTGGPRSLDMIIPNLPKNFPAPIVVVQHGYSGTGWRTVGTKSLAQRLDSTSELTVKEAEDGEEVKPGFVYIAPGDFHLGLKAQNGKVFFFLDKSGVAYSGWYVYGVRPAVDFTLDKAAEIYKEKTIAVILTGGWSLGVYLGGDGTKGAFKVKFYGGTVIAEDKETSVVFGMPKSVIEEGYADYVLPAYKIPEKLIELV
B5: 1-1E (designed binder)
chain: GSHMVSGKIVVIGSSTGGPRSLDMIIPNLPKNFPAPIVVVQHGYDYWGEVVVGTKSLAQRLDSTSELTVKEAEDGEEVKPGFVYIAPGDFHLGLKAQNGKVFFFLDKSGSWVRGSEALGVRPAVDFTLDKAAEIYKEKTIAVILTGGYWDGTWTGGDGTKGAFKVKFYGGTVIAEDKETSVVFGMPKSVIEEGYADYVLPAYKIPEKLIELV
B6: 2-3H (designed binder)
chain: GSHMVSGKIVVIGSSTGGPRSLDMIIPNLPKNFPAPIVVVQHGWEESGWLVEGTKSLAQRLDSTSELTVKEAEDGEEVKPGFVYIAPGDFHLGLKAQNGKVFFFLDKSGLNYWGVWNWGVRPAVDFTLDKAAEIYKEKTIAVILTGGREGGATYGGDGTKGAFKVKFYGGTVIAEDKETSVVFGMPKSVIEEGYADYVLPAYKIPEKLIELV
B7: 2-6D (designed binder)
chain: GSHMVSGKIVVIGSSTGGPRSLDMIIPNLPKNFPAPIVVVQHGAAAWGNVLVGTKSLAQRLDSTSELTVKEAEDGEEVKPGFVYIAPGDFHLGLKAQNGKVFFFLDKSGTYWDGYGWYGVRPAVDFTLDKAAEIYKEKTIAVILTGGEWDGWGLGGDGTKGAFKVKFYGGTVIAEDKETSVVFGMPKSVIEEGYADYVLPAYKIPEKLIELV
B8: 1-12B (designed binder)
chain: GSHMVSGKIVVIGSSTGGPRSLDMIIPNLPKNFPAPIVVVQHGWGEVGETEVGTKSLAQRLDSTSELTVKEAEDGEEVKPGFVYIAPGDFHLGLKAQNGKVFFFLDKSGYSYAGELWRGVRPAVDFTLDKAAEIYKEKTIAVILTGGSWWGDLWGGDGTKGAFKVKFYGGTVIAEDKETSVVFGMPKSVIEEGYADYVLPAYKIPEKLIELV
B9: 1-8E (designed binder)
chain: GSHMVSGKIVVIGSSTGGPRSLDMIIPNLPKNFPAPIVVVQHGEVLDGAYEEGTKSLAQRLDSTSELTVKEAEDGEEVKPGFVYIAPGDFHLGLKAQNGKVFFFLDKSGCRYEGYGTLGVRPAVDFTLDKAAEIYKEKTIAVILTGGYSEGNYAGGDGTKGAFKVKFYGGTVIAEDKETSVVFGMPKSVIEEGYADYVLPAYKIPEKLIELV
B10: 1-11C (designed binder)
chain: GSHMVSGKIVVIGSSTGGPRSLDMIIPNLPKNFPAPIVVVQHGAGWYGGGAAGTKSLAQRLDSTSELTVKEAEDGEEVKPGFVYIAPGDFHLGLKAQNGKVFFFLDKSGNSVAGRWYWGVRPAVDFTLDKAAEIYKEKTIAVILTGGEVEGEYDGGDGTKGAFKVKFYGGTVIAEDKETSVVFGMPKSVIEEGYADYVLPAYKIPEKLIELV
B11: 1-12E (designed binder)
chain: GSHMVSGKIVVIGSSTGGPRSLDMIIPNLPKNFPAPIVVVQHGDGWYGGGAVGTKSLAQRLDSTSELTVKEAEDGEEVKPGFVYIAPGDFHLGLKAQNGKVFFFLDKSGGSYTGEWTWGVRPAVDFTLDKAAEIYKEKTIAVILTGGARYGDLRGGDGTKGAFKVKFYGGTVIAEDKETSVVFGMPKSVIEEGYADYVLPAYKIPEKLIELV
notes: as for B3
B12: 1-1B (designed binder)
chain: GSHMVSGKIVVIGSSTGGPRSLDMIIPNLPKNFPAPIVVVQHGEGWYGGGAVGTKSLAQRLDSTSELTVKEAEDGEEVKPGFVYIAPGDFHLGLKAQNGKVFFFLDKSGRGLRGGWSWGVRPAVDFTLDKAAEIYKEKTIAVILTGGAATGSSNGGDGTKGAFKVKFYGGTVIAEDKETSVVFGMPKSVIEEGYADYVLPAYKIPEKLIELV
notes: as for B3
B13: 1-1F (designed binder)
chain: GSHMVSGKIVVIGSSTGGPRSLDMIIPNLPKNFPAPIVVVQHGVSWWGGGSWGTKSLAQRLDSTSELTVKEAEDGEEVKPGFVYIAPGDFHLGLKAQNGKVFFFLDKSGRTYYGLAAWGVRPAVDFTLDKAAEIYKEKTIAVILTGGDAEGWYLGGDGTKGAFKVKFYGGTVIAEDKETSVVFGMPKSVIEEGYADYVLPAYKIPEKLIELV
B14: 2-5H (designed binder)
chain: GSHMVSGKIVVIGSSTGGPRSLDMIIPNLPKNFPAPIVVVQHGGHPQGDDLRGGTKSLAQRLDSTSELTVKEAEDGEEVKPGFVYIAPGDFHLGLKAQNGKVFFFLDKSGYWYGGWSWYGVRPAVDFTLDKAAEIYKEKTIAVILTGGWYSGAGLGGDGTKGAFKVKFYGGTVIAEDKETSVVFGMPKSVIEEGYADYVLPAYKIPEKLIELV
B15: 2-5C (designed binder)
chain: GSHMVSGKIVVIGSSTGGPRSLDMIIPNLPKNFPAPIVVVQHGGHPQGDINRGGTKSLAQRLDSTSELTVKEAEDGEEVKPGFVYIAPGDFHLGLKAQNGKVFFFLDKSGGAMNYGHAWGGVRPAVDFTLDKAAEIYKEKTIAVILTGGNVEGVWEGGDGTKGAFKVKFYGGTVIAEDKETSVVFGMPKSVIEEGYADYVLPAYKIPEKLIELV
B16: 2-7B (designed binder)
chain: GSHMVSGKIVVIGSSTGGPRSLDMIIPNLPKNFPAPIVVVQHGEWESGNDENGTKSLAQRLDSTSELTVKEAEDGEEVKPGFVYIAPGDFHLGLKAQNGKVFFFLDKSGYWWEGTNRWGVRPAVDFTLDKAAEIYKEKTIAVILTGGGWYGYEWGGDGTKGAFKVKFYGGTVIAEDKETSVVFGMPKSVIEEGYADYVLPAYKIPEKLIELV
B17: 1-12D (designed binder)
chain: B13 chain
B18: 2-8B (designed binder)
chain: GSHMVSGKIVVIGSSTGGPRSLDMIIPNLPKNFPAPIVVVQHGYDTLGWWGDGTKSLAQRLDSTSELTVKEAEDGEEVKPGFVYIAPGDFHLGLKAQNGKVFFFLDKSGDDYVGYGYLGVRPAVDFTLDKAAEIYKEKTIAVILTGGDWRGVWGGGDGTKGAFKVKFYGGTVIAEDKETSVVFGMPKSVIEEGYADYVLPAYKIPEKLIELV
B19: 3-1D (designed binder)
chain: GSHMVSGKIVVIGSSTGGPRSLDMIIPNLPKNFPAPIVVVQHGYYWGGAVYVGTKSLAQRLDSTSELTVKEAEDGEEVKPGFVYIAPGDFHLGLKAQNGKVFFFLDKSGRVVDGWDYDGVRPAVDFTLDKAAEIYKEKTIAVILTGGYASGYGDGGDGTKGAFKVKFYGGTVIAEDKETSVVFGMPKSVIEEGYADYVLPAYKIPEKLIELV
B20: 3-3A (designed binder)
chain: GSHMVSGKIVVIGSSTGGPRSLDMIIPNLPKNFPAPIVVVQHGYLRLGEWRGGTKSLAQRLDSTSELTVKEAEDGEEVKPGFVYIAPGDFHLGLKAQNGKVFFFLDKSGSALVGVSADGVRPAVDFTLDKAAEIYKEKTIAVILTGGRWYGNVEGGDGTKGAFKVKFYGGTVIAEDKETSVVFGMPKSVIEEGYADYVLPAYKIPEKLIELV
B21: 3-5A (designed binder)
chain: GSHMVSGKIVVIGSSTGGPRSLDMIIPNLPKNFPAPIVVVQHGWSWWGDWTSGTKSLAQRLDSTSELTVKEAEDGEEVKPGFVYIAPGDFHLGLKAQNGKVFFFLDKSGSWGYGDYWAGVRPAVDFTLDKAAEIYKEKTIAVILTGGTWDGWVTGGDGTKGAFKVKFYGGTVIAEDKETSVVFGMPKSVIEEGYADYVLPAYKIPEKLIELV
B22: 3-7E (designed binder)
chain: B19 chain with G48S, A49W, V50G, V52E, Y148W, A149D, S150T, Y152S, G153E, D154L
notes: as for B3
B23: 3-8A (designed binder)
chain: GSHMVSGKIVVIGSSTGGPRSLDMIIPNLPKNFPAPIVVVQHGSWVDGSWTWGTKSLAQRLDSTSELTVKEAEDGEEVKPGFVYIAPGDFHLGLKAQNGKVFFFLDKSGWWNGGYWVTGVRPAVDFTLDKAAEIYKEKTIAVILTGGVNLGLYNGGDGTKGAFKVKFYGGTVIAEDKETSVVFGMPKSVIEEGYADYVLPAYKIPEKLIELV
notes: as for B3

By UniProt entry, the sequences of proteins in these tests, tags left out.
UniProt Q9NZQ7: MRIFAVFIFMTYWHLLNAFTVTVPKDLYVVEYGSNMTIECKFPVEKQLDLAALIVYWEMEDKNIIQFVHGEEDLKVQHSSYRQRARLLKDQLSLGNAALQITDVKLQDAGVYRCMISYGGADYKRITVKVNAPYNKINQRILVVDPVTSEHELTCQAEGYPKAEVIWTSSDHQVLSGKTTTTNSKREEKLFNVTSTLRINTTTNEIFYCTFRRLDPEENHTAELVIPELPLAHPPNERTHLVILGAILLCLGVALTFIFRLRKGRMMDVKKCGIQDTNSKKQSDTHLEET

Molecular target: Biotinylated human PD-L1 antigen comprising a human IgG1 Fc domain (Acro Biosystems) (human) (UniProt Q9NZQ7)
Experiment: ELISA screen of clone lysates on coated antigen, anti-FLAG-HRP

binding, binds:
B1
B2
B3
B4
B5
B6
B7
B8
B9
B10
B11
B12
B13
B14
B15
B16
B17
B18

Molecular target: Biotinylated human HER2 antigen comprising a portion of the HER2 extracellular domain (Acro Biosystems) (human) (UniProt P04626)
Experiment: as above

binding, binds:
B19
B20
B21
B22
B23

— patent publication US20230250557A1 (published 2023)
